This passage reports binding results from paper PMC12210380.

The chains behind the UniProt entries cited, without tags or fusion partners.
UniProt P62491: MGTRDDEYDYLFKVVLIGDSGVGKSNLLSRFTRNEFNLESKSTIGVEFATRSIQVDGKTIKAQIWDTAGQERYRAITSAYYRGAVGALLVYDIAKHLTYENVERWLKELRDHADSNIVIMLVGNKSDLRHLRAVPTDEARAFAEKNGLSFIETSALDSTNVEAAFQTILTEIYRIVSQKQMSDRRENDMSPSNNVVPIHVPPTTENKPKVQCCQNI
UniProt O75608: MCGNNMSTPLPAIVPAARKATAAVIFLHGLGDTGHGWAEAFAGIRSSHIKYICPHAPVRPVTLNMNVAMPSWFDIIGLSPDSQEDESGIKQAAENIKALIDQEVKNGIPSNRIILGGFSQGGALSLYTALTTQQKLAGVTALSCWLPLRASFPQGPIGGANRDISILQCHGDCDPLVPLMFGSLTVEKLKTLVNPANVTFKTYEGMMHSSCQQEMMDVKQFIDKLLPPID
UniProt P16671: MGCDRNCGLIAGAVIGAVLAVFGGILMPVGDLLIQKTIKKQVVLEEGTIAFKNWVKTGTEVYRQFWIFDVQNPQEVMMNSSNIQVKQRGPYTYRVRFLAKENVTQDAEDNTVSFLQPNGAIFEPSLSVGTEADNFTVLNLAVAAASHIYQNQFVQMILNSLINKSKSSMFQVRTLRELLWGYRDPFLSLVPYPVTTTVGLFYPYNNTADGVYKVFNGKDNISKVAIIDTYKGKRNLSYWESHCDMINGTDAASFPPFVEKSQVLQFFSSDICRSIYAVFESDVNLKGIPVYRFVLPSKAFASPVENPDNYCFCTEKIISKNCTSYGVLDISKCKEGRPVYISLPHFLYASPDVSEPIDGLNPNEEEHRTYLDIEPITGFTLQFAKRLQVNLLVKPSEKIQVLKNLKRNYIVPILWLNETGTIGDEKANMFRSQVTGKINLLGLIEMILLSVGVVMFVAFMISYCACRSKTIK

Test [1] addresses Rab11a (human (endogenous in HPCs)) (UniProt P62491). Nature of the test: co-IP; podocytes under high glucose; whole-cell extracts, immunoprecipitation overnight at 4°C, Western blot; bait not given. (A western blot detects proteins with antibodies after separation by electrophoresis.)
Test [2] concerns the target flag-tagged wild-type APT1 (acyl-protein thioesterase 1) (UniProt O75608). The test can be described thus: co-IP; reverse: podocytes transfected with myc-CD36 and flag-APT1 plasmids, with or without high glucose; immunoprecipitated with a flag antibody, Western blot.
In test [3] the target is myc-tagged wild-type CD36 (Cluster of Differentiation 36) (UniProt P16671). Nature of the test: co-IP; podocytes transfected with myc-CD36 and flag-APT1 plasmids, with or without high glucose (30 mM, 24 h); whole-cell extracts immunoprecipitated by anti-myc antibody overnight at 4°C, Western blot.

Results are given in words; binding and its absence hold for the method and conditions named. In cells and extracts the contact can be indirect. Some entries that bind do so weakly or less than the wild type.

For the substance “CD36 (Cluster of Differentiation 36) in podocytes (from UniProt P16671 1-472) (receptor)”, the binding entry in test [1] is “binds”.

For the substance “myc-tagged wild-type CD36 (Cluster of Differentiation 36) (from UniProt P16671 1-472) (receptor)”, the binding result in test [2] is “binds”.

For “flag-tagged wild-type APT1 (acyl-protein thioesterase 1) (from UniProt O75608 1-230) (enzyme)”, the binding result in test [3] was “binds”.
